Test results taken from patent US9604989B2, “Imidazopyridazines as Akt kinase inhibitors” (Bayer Intellectual Property GmbH, priority 2011, dated 2017).

Key:
phospho-AKT at S473 = assay: Cellular p-AKT1/2/3-S473 assay in KPL-4 cells; type: cell-based; settings: Homo sapiens, KPL4; KPL-4 breast tumour cell line, compound treatment 2 hours; read-out: pAKT-S473 median IC50
p-4E-BP1 at T70 = assay: Cellular p-4E-BP1-T70 assay in KPL-4 cells; type: cell-based; settings: Homo sapiens, KPL4; KPL-4 breast tumour cell line, compound treatment 2 hours; read-out: P4EBP1-T70 median IC50

IC50 (phospho-AKT at S473): 0.9 nM
IC50 (p-4E-BP1 at T70): 35 nM
Structure (SMILES): NC(=O)c1ccc2nc(-c3ccc(C4(N)CCC4)cc3)c(-c3ccccc3)n2n1 [Example 5, 2-[4-(1-Aminocyclobutyl)phenyl]-3-phenylimidazo[1,2-b]pyridazine-6-carboxamide]
